# Data as given in the supplement of paper PMC12889115.
# Some of the results follow. Values are raw readings; no control value is given beside them.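 First-pass screen: polymyxin B was added at a level that permeabilizes the Salmonella outer membrane while sparing the inner membrane. DMSO wells, with and without polymyxin B, defined maximum growth. Because plates differed from one another, each plate's data were ranked separately and the compounds with the lowest OD600 were carried forward as hits.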
# Tested on: Salmonella enterica serovar Typhimurium SL1344
# Assay: bacterial growth OD600 after 18 h with compound and polymyxin B; higher = more bacterial growth (less inhibition)
# Conditions: 50 µM, Mueller-Hinton broth
SMILES,bacterial growth OD600 (polymyxin B 0.75 µg/mL),bacterial growth OD600 (polymyxin B 1 µg/mL)
CC(C)(C)C(=O)Nc1ccnn1C1CCN(Cc2cc(F)cc(F)c2)CC1,0.881,
Cc1oc(-c2ccc(NC(=O)Cc3ccccc3)cc2)nc1CNC(=O)Cn1nc2ccccc2n1,0.802,
COc1ccc(NC(=O)CCC2CCN(C(=O)c3cccnc3OC)CC2)c(OC)c1,,1.01
C=CCC(=O)N1CC[C@@H](N2CCN(CCc3ccccc3)CC2)[C@H](O)C1,,0.852
O=C(NC1CCCN(C2CCCCCC2)C1)c1ccccc1N1CCOCC1 (centres undefined),,1.12
CCOc1cc(CN2Cc3cc(OC)ccc3OC(CC)C2)ccc1O (centres undefined),0.779,
CCc1nc2cc(C(=O)N(CC3CC3)CC3CCCO3)cc(NC(=O)c3ccccc3OC)c2n1C (centres undefined),0.87,
CN(C(=O)c1ccccn1)C(Cc1ccccc1)C1CCN(C(=O)c2cc3ccccc3oc2=O)CC1 (centres undefined),0.945,
CN(Cc1cnccn1)Cc1cn(C)nc1-c1ccc(C2CCCCC2)cc1,,0.528
OCC1CCN(c2nc3nonc3nc2N2CCCCCC2)CC1,0.908,
CCOC(=O)C1(Cc2ccccc2)CCN(Cc2cccn2-c2nccs2)CC1,,0.893
O=C(NCCc1ccncc1)C1CCCN(C2CCN(Cc3ccccc3)CC2)C1 (centres undefined),,0.85
NC(=O)[C@@H]1CCCN1Cc1nc(N2CCOCC2)c2cc(Cl)ccc2n1,0.838,
Cc1ccc(CC2(CCC(=O)N3CCC(c4ccccc4F)C3)CCC(=O)N2)cc1 (centres undefined),0.87,
CCN(CC)C(=O)C1CCCN(Cc2nc(-c3ccc(F)c(OC)c3)oc2C)C1 (centres undefined),,0.769
CN(CCC(=O)NCc1nc(NCCCc2ccccc2)c2ccccc2n1)C1CCS(=O)(=O)C1 (centres undefined),0.84,
COCCN(C)C(=O)C1CCC(=O)N(Cc2cccc(C(F)(F)F)c2)C1 (centres undefined),,0.949
CC1(C)[C@H]2CC=C(CN3CCC(N4CCC(C(=O)NC5CC5)CC4)CC3)[C@@H]1C2,,0.867
Cc1c(CC(=O)NC2CCOC2=O)c2c(n1Cc1ccccc1F)CCCC2=O (centres undefined),,1.18
CCN(Cc1nccn1C)C(=O)c1ccc(N2CCCC(CO)C2)nc1 (centres undefined),0.811,
O=C1CCCCN1CCC(=O)N1CCCC(CCc2cccc(F)c2)C1 (centres undefined),0.857,
CCN(Cc1ccncc1)C(=O)c1coc(COc2cccc(F)c2)n1,,0.941
CC(=O)CCC(=O)N(CCc1ccccc1)CC1CCCN(C)C1 (centres undefined),,0.918
CC(C)CC(=O)C1CCCN(C(=O)CC2(c3ccc(-c4ccccc4)cc3)CC(=O)N(C)C2=O)C1 (centres undefined),-0.066,
CC(C)NC(=O)N1CCCC(CNC(=O)c2ccccc2Cl)C1 (centres undefined),0.777,
CCOC(=O)C1(CCCc2ccccc2)CCN(C2CCSCC2)CC1,,0.77
Cc1nc(N2CCC(C(=O)NCc3ccc(N4CCOCC4)cc3)CC2)nc2ccc(C(C)C)cc12,0.688,
Cc1ccc(NC2CCCN(C(=O)c3cc4ccccc4cn3)C2)cc1C (centres undefined),,0.91
Cc1cccc(CN2C[C@H](O)[C@@H](N3CCN(c4ccccn4)CC3)C2)c1,0.826,

# Shown with bars between the fields: entries from further up
SMILES | bacterial growth OD600 (polymyxin B 0.75 µg/mL) | bacterial growth OD600 (polymyxin B 1 µg/mL)
Cc1oc(-c2ccc(NC(=O)Cc3ccccc3)cc2)nc1CNC(=O)Cn1nc2ccccc2n1 | 0.802 | 
COc1ccc(NC(=O)CCC2CCN(C(=O)c3cccnc3OC)CC2)c(OC)c1 |  | 1.01
